Experimental data: US20220175942A1
Results are given in words; binding and its absence hold for the method and conditions named. Some binding calls cover weakened binding; strength is not graded here. For some assays here: Sequences can lack the tags named with a protein.

Key:
[1] = molecular target: T1, CCL19_HUMAN (human), Q99731; assay: yeast surface display FACS re-test, >3 fold MFI over control (col D); details: remark: other sources report otherwise
T1 chain: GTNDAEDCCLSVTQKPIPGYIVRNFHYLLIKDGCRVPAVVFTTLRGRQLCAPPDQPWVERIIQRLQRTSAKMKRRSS

[2] = molecular target: T2, CCL5_HUMAN (human), P13501; assay: as above; details: remark: other sources report otherwise
T2 chain: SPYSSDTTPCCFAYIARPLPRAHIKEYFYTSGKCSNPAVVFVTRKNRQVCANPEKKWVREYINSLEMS

[3] = molecular target: T3, CX3CL1_HUMAN (human), P78423; assay: as above; details: remark: other sources report otherwise
T3 chain: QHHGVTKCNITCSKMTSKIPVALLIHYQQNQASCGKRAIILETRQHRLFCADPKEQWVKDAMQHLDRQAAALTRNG

[4] = molecular target: T2, CCL5_HUMAN (human), P13501; assay: yeast surface display library FACS screen, labelled chemokine (col C: isolated in); details: remark: other sources report otherwise
[5] = molecular target: T4, CCL15_HUMAN (human) (UniProt Q16663); assay: yeast surface display FACS re-test, >3 fold MFI over control (col D)
T4 sequence: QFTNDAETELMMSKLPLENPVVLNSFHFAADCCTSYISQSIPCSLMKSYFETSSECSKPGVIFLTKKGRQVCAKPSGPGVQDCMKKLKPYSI

[6] = molecular target: T4, CCL15_HUMAN (human); assay: yeast surface display library FACS screen, labelled chemokine (col C: isolated in)
[7] = molecular target: T5, CCL17_HUMAN (human), Q92583; assay: yeast surface display FACS re-test, >3 fold MFI over control (col D); details: remark: other sources report otherwise
T5 chain: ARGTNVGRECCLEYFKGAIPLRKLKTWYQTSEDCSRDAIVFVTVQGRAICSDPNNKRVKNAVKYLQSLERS

[8] = molecular target: T6, CXCL11_HUMAN (human), O14625; assay: as above; details: remark: other sources report otherwise
T6 chain: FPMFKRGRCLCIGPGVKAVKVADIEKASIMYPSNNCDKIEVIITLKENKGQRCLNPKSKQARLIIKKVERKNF

B1: P546_AMBCA, A0A023FBW7 22-118 (protein)
chain: ENTQQEEEDYDYGTDTCPFPVLANKTNKAKFVGCHQKCNGGDQKLTDGTACYVVERKVWDRMTPMLWYSCPLGECKNGVCEDLRKKEECRKGNGEEK
binding [1]: binds
binding [2]: binds
binding [3]: binds
binding [4]: binds

B2: P1243_AMBAM (protein)
chain: RNHTEDNSTEYYDYEEARCACPARHLNNTNGTVLKLLGCHYFCNGTLCTAPDGYPCYNLTAQQVRTLTTYPNTSCAVGVCMKGTCVKNGTMEQCFKTP
binding [5]: binds
binding [6]: binds

B3: P985_AMBPA, A0A023FT45 25-132 (protein)
chain: DEESEELGASTDVDYEELDANCTCPAPALTSTRNNKHYPLGCIYNCSSYNCTIPDGTPCYVLTLGEVKEHLQIGSTVPNCTCGLCRNGTCVSNGTVEECFAVEEIEET
binding [7]: binds
binding [8]: binds
